PubChem BioAssay AID493246 | Drosophila RNAi Screening Center | 2011
The deposit covers about 21,000 reagents; shown is an unselected part of those with a known target gene and a result. Of all reagents, 429 (2%) are marked active. 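Values are raw and not normalised between plates; calls rest on per-plate z-scores that were not deposited.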 Unmarked entries are inactive. Names joined by + are all predicted targets of the reagent. No sequences are given here. Not stated in the record: the amount of reagent, the time to read-out.

Aim: 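Genome-wide search for dsRNAs that reduce cell number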 (primary screen)
Cells: Drosophila Kc and S2R+ cells
Reagents: long dsRNA against Drosophila genes
Detection: 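Cell number per well after knock-down, printed as raw plate values; calls were based on per-plate z-scores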
Direction: Kc cell number and S2R+ cell number: higher = more cells remaining
Active means: 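Active when the per-plate z-score of cell number is 3 or more in the direction of fewer cells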

With ATPsynbetaL [DRSC10503], what was measured?
Kc cell number, rep 1: 1.37e6; Kc cell number, rep 2: 1.42e6; S2R+ cell number, rep 1: 1.27e6; S2R+ cell number, rep 2: 1.32e6

What is on record for Vha16-2 [DRSC10873]?
Kc cell number, rep 1: 1.28e6; Kc cell number, rep 2: 1.30e6; S2R+ cell number, rep 1: 1.33e6; S2R+ cell number, rep 2: 1.38e6

With CG3626 [DRSC18318], what was measured?
Kc cell number, rep 1: 1.47e6; Kc cell number, rep 2: 1.41e6; S2R+ cell number, rep 1: 1.04e6; S2R+ cell number, rep 2: 1.01e6

For CG13075 [DRSC09958], what was measured?
Kc cell number, rep 1: 1.39e6; Kc cell number, rep 2: 1.51e6; S2R+ cell number, rep 1: 1.28e6; S2R+ cell number, rep 2: 1.34e6

What is on record for Rbf2 [DRSC16816]?
Kc cell number, rep 1: 1.44e6; Kc cell number, rep 2: 1.57e6; S2R+ cell number, rep 1: 1.08e6; S2R+ cell number, rep 2: 1.16e6

What is on record for Alg-2 [DRSC07799]?
Kc cell number, rep 1: 1.54e6; Kc cell number, rep 2: 1.17e6; S2R+ cell number, rep 1: 1.02e6; S2R+ cell number, rep 2: 1.19e6

For CG14325 [DRSC14804], what was measured?
Kc cell number, rep 1: 9.24e5; Kc cell number, rep 2: 1.11e6; S2R+ cell number, rep 1: 8.02e5; S2R+ cell number, rep 2: 7.98e5

With Dph4 [DRSC12318], how do the results read?
Kc cell number, rep 1: 1.42e6; Kc cell number, rep 2: 1.45e6; S2R+ cell number, rep 1: 1.26e6; S2R+ cell number, rep 2: 1.33e6

With cuff [DRSC06315], what does the deposit list?
Kc cell number, rep 1: 1.99e6; Kc cell number, rep 2: 1.79e6; S2R+ cell number, rep 1: 1.32e6; S2R+ cell number, rep 2: 1.47e6

Which result is listed for Dph5 [DRSC16653]?
Kc cell number, rep 1: 1.49e6; Kc cell number, rep 2: 1.55e6; S2R+ cell number, rep 1: 1.16e6; S2R+ cell number, rep 2: 1.24e6

With Der-1 [DRSC00301], what was measured?
Kc cell number, rep 1: 1.38e6; Kc cell number, rep 2: 1.37e6; S2R+ cell number, rep 1: 1.05e6; S2R+ cell number, rep 2: 1.03e6

For Arp6 [DRSC19326], what was measured?
Kc cell number, rep 1: 6.15e5; S2R+ cell number, rep 1: 8.56e5

For Chd3 [DRSC11114], what was measured?
Kc cell number, rep 1: 1.54e6; Kc cell number, rep 2: 1.90e6; S2R+ cell number, rep 1: 1.15e6; S2R+ cell number, rep 2: 1.32e6

Which result is listed for dbe [DRSC00811]?
Kc cell number, rep 1: 1.46e6; Kc cell number, rep 2: 1.46e6; S2R+ cell number, rep 1: 9.78e5; S2R+ cell number, rep 2: 1.09e6

With lbl [DRSC16986], what was measured?
Kc cell number, rep 1: 1.41e6; Kc cell number, rep 2: 1.49e6; S2R+ cell number, rep 1: 1.04e6; S2R+ cell number, rep 2: 1.14e6

For CG32830 (retired record) [DRSC01162], what does the deposit list?
Kc cell number, rep 1: 1.36e6 (active); Kc cell number, rep 2: 1.38e6; S2R+ cell number, rep 1: 6.55e5; S2R+ cell number, rep 2: 7.65e5

How did the screen score Rpt6R [DRSC15431]?
Kc cell number, rep 1: 1.48e6; Kc cell number, rep 2: 1.46e6; S2R+ cell number, rep 1: 9.72e5; S2R+ cell number, rep 2: 1.13e6

What did the screen give for CG7017 [DRSC10762]?
Kc cell number, rep 1: 1.59e6; Kc cell number, rep 2: 1.64e6; S2R+ cell number, rep 1: 1.20e6; S2R+ cell number, rep 2: 1.41e6

How did the screen score l(3)05822 [DRSC16202]?
Kc cell number, rep 1: 1.63e6; Kc cell number, rep 2: 1.71e6; S2R+ cell number, rep 1: 1.20e6; S2R+ cell number, rep 2: 1.29e6

For CG12104 [DRSC08254], what was measured?
Kc cell number, rep 1: 1.32e6; Kc cell number, rep 2: 1.43e6; S2R+ cell number, rep 1: 1.23e6; S2R+ cell number, rep 2: 1.13e6

What did the screen give for bcn92 [DRSC18741]?
Kc cell number, rep 1: 1.71e6; Kc cell number, rep 2: 1.78e6; S2R+ cell number, rep 1: 1.16e6; S2R+ cell number, rep 2: 1.33e6

What is on record for Osi22 [DRSC16442]?
Kc cell number, rep 1: 1.52e6; Kc cell number, rep 2: 1.59e6; S2R+ cell number, rep 1: 1.22e6; S2R+ cell number, rep 2: 1.32e6

What did the screen give for Ero1L [DRSC08660]?
Kc cell number, rep 1: 1.33e6; Kc cell number, rep 2: 1.39e6; S2R+ cell number, rep 1: 1.25e6; S2R+ cell number, rep 2: 1.20e6

With Klp67A + CG34456 [DRSC10420], how do the results read?
Kc cell number, rep 1: 1.72e6; Kc cell number, rep 2: 1.60e6; S2R+ cell number, rep 1: 1.38e6; S2R+ cell number, rep 2: 1.56e6

What did the screen give for hep [DRSC19839]?
Kc cell number, rep 1: 1.49e6; Kc cell number, rep 2: 1.50e6; S2R+ cell number, rep 1: 1.04e6; S2R+ cell number, rep 2: 1.12e6

For hep [DRSC20337], how do the results read?
Kc cell number, rep 1: 1.66e6; Kc cell number, rep 2: 1.58e6; S2R+ cell number, rep 1: 1.04e6; S2R+ cell number, rep 2: 1.10e6

What did the screen give for CG11694 [DRSC14354]?
Kc cell number, rep 1: 1.81e6; Kc cell number, rep 2: 1.90e6; S2R+ cell number, rep 1: 1.39e6; S2R+ cell number, rep 2: 1.57e6

Ordered by “S2R+ cell number, rep 2” (low to high): some entries from above
Rbf2 [DRSC16816] — Kc cell number, rep 1 = 1.44e6; Kc cell number, rep 2 = 1.57e6; S2R+ cell number, rep 1 = 1.08e6; S2R+ cell number, rep 2 = 1.16e6
CG13075 [DRSC09958] — Kc cell number, rep 1 = 1.39e6; Kc cell number, rep 2 = 1.51e6; S2R+ cell number, rep 1 = 1.28e6; S2R+ cell number, rep 2 = 1.34e6
